# In doi:10.1101/2023.11.14.567006:
# Results are given in words; binding and its absence hold for the method and conditions named. Binding calls can cover weak binding; strength is not graded here. Tags and fused reporters may be left off the sequences shown.
# B1: CmpD-T18 (C-terminal tagged CmpD) (protein, UniProt Q55463 1-282)
# chain: MQTLKSQRAMPTATPSDQKTTAFLTIENVSKVYPTAKGPYTVLENVNLTVNEGEFICVIGHSGCGKSTLLNMVSGFASPTDGSVQVGGKIITEPGPDRMVVFQNYALLPWLTALENVYIAVDAVHSQKTEAEKRAIAKDHLAMVGLTDSMDKKPGQISGGMKQRVSIARALAIRPEVLILDEPFGALDAITKEELQEELLQIWNDHRCTVLMITHDIDEALFLADRLVMMTNGPHANIGEIMTIPFSRPRDRDRIMEDPTYYQLRNYALDFLYNRFAHDDVA
# B2: CmpC-T18 (C-terminal tagged CmpC) (protein, UniProt Q55462 1-667)
# chain: MSLFVAVDNIDKVFSLTDGGEYIALKGINLEIKKGEFVSLIGHSGCGKSTLLNMIAGLDLPSEGIVTLEGQRIKQPGPDKMVIFQNYSLLPWLTVKQNIALAVDEVMKGASAAERKAIVEEHINLVGLGHAVDKRPGELSGGMKQRVAIARALAIRPKLLLLDEPFGALDALTRGNLQEQLMRICEQYQVTAVMVTHDVDEAVLLSDRIVMLTNGPGSNIGGILEVDIPRPRKRMEVVEHPSYYSLRSEIIYFLNQQKRIKKLRAKKTTAIARHGLEKVNLELGYVPLVACAPLVVAQEKGFFAKHGLDEVSLVRETSWRGIVDGIAGGYLDGAQMPAGMPTWLTAGGYREQSIPVVSALTMTRNGNAITLSKKLYDQGIYTAEDFRQLLLASDGDRHTLGMVHPSSMHNLLLRYWLAAHNINPDRDVHLKTIPPAQMVADLKAGTIDGYCVSEPWNLRASMEGAGFSIATDLEIWQNHPGKVLGVREDWAIAHPNTHVALVKALLEACAYCADPNHEMEIRELLATRQYLSTNIDYIHLGDPEGRTCRLGNPVEYSHHLFFGDQFNRPSRTEHLWMMTQMARWGDIPFPRNWVEILERVCRVGVFSTAARELGYDVNYQRQPIALFDGKVFNADDPIAYLNQTVIHRNFTIAEVHLDNPTPAPVFA
# B3: T18-CmpC (N-terminal tagged CmpC) (protein, UniProt Q55462 1-667)
# chain: B2 chain
# B4: BicA-T18 (C-terminal tagged BicA) (protein, UniProt Q55415 1-564)
# chain: MQITNKIHFRNLQGDLFGGVTAAVIALPMALAFGIASGAGATAGLWGAVIVGFFAALFGGTPTLISEPTGPMTVVQTAVIASLVAADPDNGLAMAFTVVMMAGLFQIAFGLLKLGKYVTMMPYTVISGFMSGIGIILVILQLAPFLGQASPKGGVIGTLQALPNLVSNVRPVETLLALMTVGIIWFMPSRWKKFAPPQLVALVLGTIISITLFGDLDIRRIGEIQAGLPALQLPVFQADQLQRMLIDAAVLGMLGCIDALLTSVVADSLTRTEHNSNKELVGQGIGNVMSGLFGGLGGAGATMGTVVNIQSGGRTALSGLIRAMVLLVVILGAAKLAATIPLAVLAGIAFKVGVDIIDWGFLKRAHHVSIKGALIMYAVIVLTVLVDLIAAVGIGVFIANILTIDRMSALQSKAVKSISDADDEILLSANEKRWLDEGNGRVLLFQLSGPMIFGVAKAIAREHNAIQECAAIVFDLSDVPHLGVTASLALENAIEEAAEKGRAVYIVGATGQTKRRLEKLQVFRFVPESNCYDDRSEALKDAVLALGPHESEDSPSSSSVQTTY
# Assays:
# [1] = biological target: T25-SbtB (N-terminal tagged SbtB) (Synechocystis sp. PCC 6803); assay: two-hybrid
# [2] = biological target: SbtB-T25 (C-terminal tagged SbtB) (Synechocystis sp. PCC 6803); assay: two-hybrid
Binder,binding [1],binding [2]
B1,binds,binds
B2,binds,binds
B3,binds,binds
B4,binds,binds
